Assay [1] has as its target Flag-tagged RNF213 (RING finger protein 213), transgene overexpressed in Treg cells of Rnf213^Tg Foxp3^Cre mice (UniProt E9Q555). Description: co-IP; lysates of Treg cells isolated from WT or Rnf213^Tg mice; Nonidet P-40 lysis buffer (150 mM NaCl, 1 mM EDTA, 1% NP-40), protein G Sepharose, washes with lysis buffer containing 500 mM NaCl, immunoblot.
Assay [2] addresses Flag-RNF213 expressed in HEK293T cells (UniProt E9Q555). Put plainly: co-IP; HEK293T cells transfected with the indicated plasmids for 24 h; Nonidet P-40 lysis buffer, protein G Sepharose, washes with lysis buffer containing 500 mM NaCl, immunoblot. (A western blot detects proteins with antibodies after separation by electrophoresis.)

The chains behind the UniProt entries cited, without tags or fusion partners.
UniProt E9Q555: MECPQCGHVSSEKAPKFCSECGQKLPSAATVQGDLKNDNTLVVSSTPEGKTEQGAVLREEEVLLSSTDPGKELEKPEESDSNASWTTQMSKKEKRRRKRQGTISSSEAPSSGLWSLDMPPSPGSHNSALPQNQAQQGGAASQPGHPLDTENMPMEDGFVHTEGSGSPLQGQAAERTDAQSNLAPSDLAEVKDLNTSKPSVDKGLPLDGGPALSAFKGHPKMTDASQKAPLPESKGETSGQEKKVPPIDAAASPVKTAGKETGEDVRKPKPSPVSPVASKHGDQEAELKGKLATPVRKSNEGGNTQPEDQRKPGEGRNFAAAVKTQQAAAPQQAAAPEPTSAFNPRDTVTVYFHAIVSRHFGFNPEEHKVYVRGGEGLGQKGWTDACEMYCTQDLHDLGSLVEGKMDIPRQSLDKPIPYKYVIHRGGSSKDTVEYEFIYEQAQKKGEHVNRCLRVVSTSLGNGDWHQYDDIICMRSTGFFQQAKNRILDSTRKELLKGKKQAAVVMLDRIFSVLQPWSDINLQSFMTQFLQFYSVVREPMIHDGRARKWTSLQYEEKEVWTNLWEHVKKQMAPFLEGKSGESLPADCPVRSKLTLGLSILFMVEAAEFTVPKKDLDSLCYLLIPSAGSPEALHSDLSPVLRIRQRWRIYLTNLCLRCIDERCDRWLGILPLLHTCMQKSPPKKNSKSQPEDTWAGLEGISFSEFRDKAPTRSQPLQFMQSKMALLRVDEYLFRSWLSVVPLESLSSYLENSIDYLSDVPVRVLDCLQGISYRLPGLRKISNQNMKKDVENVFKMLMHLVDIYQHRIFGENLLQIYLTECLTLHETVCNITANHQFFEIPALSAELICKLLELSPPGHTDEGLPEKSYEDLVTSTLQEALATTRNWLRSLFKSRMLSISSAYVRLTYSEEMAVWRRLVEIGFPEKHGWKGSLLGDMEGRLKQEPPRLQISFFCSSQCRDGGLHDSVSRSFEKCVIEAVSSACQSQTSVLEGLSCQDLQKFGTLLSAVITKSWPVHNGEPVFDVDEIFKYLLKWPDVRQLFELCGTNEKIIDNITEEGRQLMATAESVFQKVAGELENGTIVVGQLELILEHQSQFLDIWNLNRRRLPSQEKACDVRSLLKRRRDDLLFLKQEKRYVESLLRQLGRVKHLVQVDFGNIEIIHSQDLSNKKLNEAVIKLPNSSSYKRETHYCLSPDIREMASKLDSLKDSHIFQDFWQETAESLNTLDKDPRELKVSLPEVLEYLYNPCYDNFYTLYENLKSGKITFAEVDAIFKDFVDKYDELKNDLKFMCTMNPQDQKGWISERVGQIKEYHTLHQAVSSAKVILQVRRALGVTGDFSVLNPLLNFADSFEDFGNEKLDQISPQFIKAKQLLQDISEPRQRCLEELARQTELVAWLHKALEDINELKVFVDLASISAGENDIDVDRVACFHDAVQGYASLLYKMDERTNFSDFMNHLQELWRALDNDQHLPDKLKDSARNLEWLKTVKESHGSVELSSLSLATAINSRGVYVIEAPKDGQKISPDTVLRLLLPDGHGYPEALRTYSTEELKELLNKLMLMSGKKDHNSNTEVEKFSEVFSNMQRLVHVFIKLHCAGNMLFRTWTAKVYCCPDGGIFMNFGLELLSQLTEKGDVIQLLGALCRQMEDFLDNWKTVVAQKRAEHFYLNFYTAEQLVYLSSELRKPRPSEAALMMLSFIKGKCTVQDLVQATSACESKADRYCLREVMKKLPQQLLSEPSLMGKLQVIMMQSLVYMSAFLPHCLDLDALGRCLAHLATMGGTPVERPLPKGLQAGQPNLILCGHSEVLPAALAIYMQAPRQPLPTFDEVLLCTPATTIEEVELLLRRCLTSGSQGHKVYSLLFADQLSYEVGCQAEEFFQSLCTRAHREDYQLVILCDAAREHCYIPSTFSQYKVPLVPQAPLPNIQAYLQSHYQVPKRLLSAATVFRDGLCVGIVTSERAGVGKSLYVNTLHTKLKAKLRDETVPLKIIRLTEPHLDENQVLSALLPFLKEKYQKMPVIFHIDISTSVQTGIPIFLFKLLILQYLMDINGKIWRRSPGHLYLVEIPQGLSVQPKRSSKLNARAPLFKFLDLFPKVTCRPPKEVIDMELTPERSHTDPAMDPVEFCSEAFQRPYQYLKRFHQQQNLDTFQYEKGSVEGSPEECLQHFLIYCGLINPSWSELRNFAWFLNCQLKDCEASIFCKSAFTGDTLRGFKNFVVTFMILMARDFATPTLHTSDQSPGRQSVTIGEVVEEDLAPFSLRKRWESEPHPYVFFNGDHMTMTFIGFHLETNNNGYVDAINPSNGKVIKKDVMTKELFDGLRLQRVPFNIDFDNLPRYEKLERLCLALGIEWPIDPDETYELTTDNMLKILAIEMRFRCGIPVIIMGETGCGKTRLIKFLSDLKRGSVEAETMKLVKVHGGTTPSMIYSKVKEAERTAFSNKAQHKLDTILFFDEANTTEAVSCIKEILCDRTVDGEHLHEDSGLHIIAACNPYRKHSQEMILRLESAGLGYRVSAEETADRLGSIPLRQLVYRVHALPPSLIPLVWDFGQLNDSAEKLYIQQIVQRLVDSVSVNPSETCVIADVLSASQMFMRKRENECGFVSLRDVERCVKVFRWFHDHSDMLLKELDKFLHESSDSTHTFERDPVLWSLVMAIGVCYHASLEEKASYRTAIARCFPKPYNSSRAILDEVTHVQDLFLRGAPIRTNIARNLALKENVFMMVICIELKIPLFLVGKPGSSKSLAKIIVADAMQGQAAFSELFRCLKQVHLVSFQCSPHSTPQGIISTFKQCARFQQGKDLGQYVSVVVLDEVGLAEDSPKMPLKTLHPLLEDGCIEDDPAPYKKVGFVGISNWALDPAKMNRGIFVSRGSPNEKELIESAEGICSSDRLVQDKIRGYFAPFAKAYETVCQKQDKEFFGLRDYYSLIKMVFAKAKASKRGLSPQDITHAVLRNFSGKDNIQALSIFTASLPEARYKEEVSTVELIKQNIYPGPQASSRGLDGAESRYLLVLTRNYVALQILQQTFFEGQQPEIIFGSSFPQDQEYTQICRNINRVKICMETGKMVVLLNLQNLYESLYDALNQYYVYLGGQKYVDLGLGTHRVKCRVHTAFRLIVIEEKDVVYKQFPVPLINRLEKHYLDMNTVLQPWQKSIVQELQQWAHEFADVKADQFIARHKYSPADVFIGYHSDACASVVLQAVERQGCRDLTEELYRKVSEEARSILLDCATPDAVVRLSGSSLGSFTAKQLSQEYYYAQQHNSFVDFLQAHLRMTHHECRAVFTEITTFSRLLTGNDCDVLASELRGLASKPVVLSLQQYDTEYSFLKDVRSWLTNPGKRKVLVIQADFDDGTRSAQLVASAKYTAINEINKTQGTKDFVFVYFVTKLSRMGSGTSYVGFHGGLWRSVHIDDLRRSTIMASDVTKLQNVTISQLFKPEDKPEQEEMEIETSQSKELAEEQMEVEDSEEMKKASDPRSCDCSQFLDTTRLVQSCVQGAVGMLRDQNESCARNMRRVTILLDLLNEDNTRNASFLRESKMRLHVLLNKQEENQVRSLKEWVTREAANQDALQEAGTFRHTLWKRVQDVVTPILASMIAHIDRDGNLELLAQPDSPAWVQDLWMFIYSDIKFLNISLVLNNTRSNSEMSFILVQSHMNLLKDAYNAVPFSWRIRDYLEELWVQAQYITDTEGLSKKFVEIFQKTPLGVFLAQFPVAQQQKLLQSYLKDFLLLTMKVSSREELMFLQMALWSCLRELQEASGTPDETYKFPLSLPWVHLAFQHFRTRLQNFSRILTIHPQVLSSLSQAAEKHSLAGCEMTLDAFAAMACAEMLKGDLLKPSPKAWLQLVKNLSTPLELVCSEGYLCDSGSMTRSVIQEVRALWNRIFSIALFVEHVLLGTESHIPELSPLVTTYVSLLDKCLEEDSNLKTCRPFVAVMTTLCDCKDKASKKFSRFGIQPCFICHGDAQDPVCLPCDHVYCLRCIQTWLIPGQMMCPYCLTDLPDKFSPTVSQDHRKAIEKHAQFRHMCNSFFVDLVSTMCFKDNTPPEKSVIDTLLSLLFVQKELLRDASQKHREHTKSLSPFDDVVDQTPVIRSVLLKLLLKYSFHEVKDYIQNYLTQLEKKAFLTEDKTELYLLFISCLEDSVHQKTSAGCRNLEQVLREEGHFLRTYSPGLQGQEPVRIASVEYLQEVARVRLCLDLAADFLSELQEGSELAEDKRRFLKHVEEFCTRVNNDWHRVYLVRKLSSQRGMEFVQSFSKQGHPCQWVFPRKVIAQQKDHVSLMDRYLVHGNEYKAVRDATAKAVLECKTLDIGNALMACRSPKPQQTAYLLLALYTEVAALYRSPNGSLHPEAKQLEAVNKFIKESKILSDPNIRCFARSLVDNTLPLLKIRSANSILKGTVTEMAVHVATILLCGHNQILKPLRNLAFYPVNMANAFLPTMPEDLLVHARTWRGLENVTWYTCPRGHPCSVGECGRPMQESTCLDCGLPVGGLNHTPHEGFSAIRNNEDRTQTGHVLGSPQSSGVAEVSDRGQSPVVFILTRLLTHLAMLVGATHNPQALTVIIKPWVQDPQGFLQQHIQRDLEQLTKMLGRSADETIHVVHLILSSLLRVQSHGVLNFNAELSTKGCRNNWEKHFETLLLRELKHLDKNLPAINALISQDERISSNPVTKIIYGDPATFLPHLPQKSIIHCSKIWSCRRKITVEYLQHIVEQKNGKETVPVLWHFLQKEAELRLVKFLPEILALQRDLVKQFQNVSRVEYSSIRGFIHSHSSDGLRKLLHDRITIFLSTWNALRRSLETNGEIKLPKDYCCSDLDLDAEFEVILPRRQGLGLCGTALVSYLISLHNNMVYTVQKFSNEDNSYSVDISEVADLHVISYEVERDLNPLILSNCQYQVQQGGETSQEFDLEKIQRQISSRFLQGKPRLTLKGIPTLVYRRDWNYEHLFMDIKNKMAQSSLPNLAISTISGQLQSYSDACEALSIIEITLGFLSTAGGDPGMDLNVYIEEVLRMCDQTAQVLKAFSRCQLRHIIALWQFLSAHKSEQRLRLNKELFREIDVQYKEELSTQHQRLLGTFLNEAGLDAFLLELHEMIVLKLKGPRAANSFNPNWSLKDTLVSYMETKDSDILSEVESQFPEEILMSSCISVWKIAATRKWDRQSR
UniProt Q9R1E0: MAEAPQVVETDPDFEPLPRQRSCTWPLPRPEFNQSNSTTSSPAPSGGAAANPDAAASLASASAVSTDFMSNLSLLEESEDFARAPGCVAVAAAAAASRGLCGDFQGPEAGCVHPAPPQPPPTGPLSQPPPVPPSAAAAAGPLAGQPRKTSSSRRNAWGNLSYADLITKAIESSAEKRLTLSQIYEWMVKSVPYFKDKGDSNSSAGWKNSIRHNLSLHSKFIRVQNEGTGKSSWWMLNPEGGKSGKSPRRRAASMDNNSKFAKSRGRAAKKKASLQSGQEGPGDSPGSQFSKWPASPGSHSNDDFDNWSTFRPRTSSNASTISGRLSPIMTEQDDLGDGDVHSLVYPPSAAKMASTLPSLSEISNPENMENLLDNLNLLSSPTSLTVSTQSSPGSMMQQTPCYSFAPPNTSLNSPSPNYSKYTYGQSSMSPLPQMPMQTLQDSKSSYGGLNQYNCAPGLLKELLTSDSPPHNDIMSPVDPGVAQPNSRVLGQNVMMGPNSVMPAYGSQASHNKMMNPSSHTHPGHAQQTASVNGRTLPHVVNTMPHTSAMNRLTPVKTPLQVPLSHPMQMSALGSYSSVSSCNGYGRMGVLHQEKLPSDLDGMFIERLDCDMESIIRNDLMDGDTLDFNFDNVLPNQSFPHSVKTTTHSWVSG

No constants are given. Whether binding was seen depends on the method and setting. In cells and extracts the contact can be indirect. Some entries that bind do so weakly or less than the wild type.

For the substance “Forkhead Box Protein O1 (FOXO1), endogenous in mouse Treg cells (from UniProt Q9R1E0 1-652)”, the binding entry in assay [1] was “binds”. On to “Myc-FOXO1 expressed in HEK293T cells (from UniProt Q9R1E0 1-652)”, for which the binding result in assay [2] is “binds”.

Source of the values: paper PMC11252262.
